Measurements from patent US20020147151A1 (TRUSTEES OF BOSTON UNIVERSITY, published 2002).
No constants are given. Whether binding was seen depends on the method and setting. In cells and extracts the contact can be indirect. Some binding calls cover weakened binding; strength is not graded here.

By UniProt entry, the sequences of proteins in these tests, tags left out. Residues count along the entry.
UniProt O54824, residues 1204-1322: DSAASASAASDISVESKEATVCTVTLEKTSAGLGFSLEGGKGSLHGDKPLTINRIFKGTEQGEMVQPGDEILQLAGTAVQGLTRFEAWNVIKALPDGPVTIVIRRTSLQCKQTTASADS

Biological target: 35S-labeled murine rIL-16 (in vitro transcription and translation product, C-terminal 119 amino acids) (mouse) (UniProt O54824)
Experiment: competition: peptide (10^-5 M) added to the pull-down of 35S-labeled rIL-16 on GST-D3D4 beads; the filing reads it as sequestering of IL-16

binding	Binder
binds	TGLWQCLLSEGD [peptide B (…, murine CD4 D4 aa 341-352)]
binds	VSEEQKVVQVVA [peptide A (…, murine CD4 D4 aa 327-338)]
